No constants are given. Whether binding was seen depends on the method and setting. Binding seen in cells or lysates may run through a third protein. Some results given as binding are weak or reduced against the parent protein; the word gives no strength.
Biological target: mGluR2 (metabotropic glutamate receptor 2) with a Flag tag (UniProt Q14416)
Experiment: co-IP

Sequences of proteins named here, by UniProt entry; tags and fusion partners are left off. Residues count along the entry.
UniProt Q14416, residues 19-872: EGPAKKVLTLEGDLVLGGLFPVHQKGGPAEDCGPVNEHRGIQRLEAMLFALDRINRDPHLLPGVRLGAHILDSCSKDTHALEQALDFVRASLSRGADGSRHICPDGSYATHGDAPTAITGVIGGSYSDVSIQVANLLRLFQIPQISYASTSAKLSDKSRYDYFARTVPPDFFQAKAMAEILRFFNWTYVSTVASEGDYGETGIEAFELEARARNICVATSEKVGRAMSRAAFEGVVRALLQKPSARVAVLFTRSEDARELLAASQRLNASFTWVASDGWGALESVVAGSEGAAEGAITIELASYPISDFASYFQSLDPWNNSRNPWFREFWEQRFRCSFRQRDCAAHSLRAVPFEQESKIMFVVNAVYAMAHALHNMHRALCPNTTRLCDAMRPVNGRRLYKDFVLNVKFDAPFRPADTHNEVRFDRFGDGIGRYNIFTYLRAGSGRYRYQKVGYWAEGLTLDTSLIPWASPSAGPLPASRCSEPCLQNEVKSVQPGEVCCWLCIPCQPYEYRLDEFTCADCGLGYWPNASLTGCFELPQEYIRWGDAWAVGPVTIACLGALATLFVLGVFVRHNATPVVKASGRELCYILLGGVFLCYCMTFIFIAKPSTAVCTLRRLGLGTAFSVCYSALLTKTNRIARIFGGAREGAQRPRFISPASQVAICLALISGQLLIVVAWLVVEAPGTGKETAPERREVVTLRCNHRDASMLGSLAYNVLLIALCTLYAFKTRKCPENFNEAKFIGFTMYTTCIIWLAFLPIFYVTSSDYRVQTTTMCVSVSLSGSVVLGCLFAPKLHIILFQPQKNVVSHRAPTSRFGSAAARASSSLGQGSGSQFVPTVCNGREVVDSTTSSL
UniProt Q12791: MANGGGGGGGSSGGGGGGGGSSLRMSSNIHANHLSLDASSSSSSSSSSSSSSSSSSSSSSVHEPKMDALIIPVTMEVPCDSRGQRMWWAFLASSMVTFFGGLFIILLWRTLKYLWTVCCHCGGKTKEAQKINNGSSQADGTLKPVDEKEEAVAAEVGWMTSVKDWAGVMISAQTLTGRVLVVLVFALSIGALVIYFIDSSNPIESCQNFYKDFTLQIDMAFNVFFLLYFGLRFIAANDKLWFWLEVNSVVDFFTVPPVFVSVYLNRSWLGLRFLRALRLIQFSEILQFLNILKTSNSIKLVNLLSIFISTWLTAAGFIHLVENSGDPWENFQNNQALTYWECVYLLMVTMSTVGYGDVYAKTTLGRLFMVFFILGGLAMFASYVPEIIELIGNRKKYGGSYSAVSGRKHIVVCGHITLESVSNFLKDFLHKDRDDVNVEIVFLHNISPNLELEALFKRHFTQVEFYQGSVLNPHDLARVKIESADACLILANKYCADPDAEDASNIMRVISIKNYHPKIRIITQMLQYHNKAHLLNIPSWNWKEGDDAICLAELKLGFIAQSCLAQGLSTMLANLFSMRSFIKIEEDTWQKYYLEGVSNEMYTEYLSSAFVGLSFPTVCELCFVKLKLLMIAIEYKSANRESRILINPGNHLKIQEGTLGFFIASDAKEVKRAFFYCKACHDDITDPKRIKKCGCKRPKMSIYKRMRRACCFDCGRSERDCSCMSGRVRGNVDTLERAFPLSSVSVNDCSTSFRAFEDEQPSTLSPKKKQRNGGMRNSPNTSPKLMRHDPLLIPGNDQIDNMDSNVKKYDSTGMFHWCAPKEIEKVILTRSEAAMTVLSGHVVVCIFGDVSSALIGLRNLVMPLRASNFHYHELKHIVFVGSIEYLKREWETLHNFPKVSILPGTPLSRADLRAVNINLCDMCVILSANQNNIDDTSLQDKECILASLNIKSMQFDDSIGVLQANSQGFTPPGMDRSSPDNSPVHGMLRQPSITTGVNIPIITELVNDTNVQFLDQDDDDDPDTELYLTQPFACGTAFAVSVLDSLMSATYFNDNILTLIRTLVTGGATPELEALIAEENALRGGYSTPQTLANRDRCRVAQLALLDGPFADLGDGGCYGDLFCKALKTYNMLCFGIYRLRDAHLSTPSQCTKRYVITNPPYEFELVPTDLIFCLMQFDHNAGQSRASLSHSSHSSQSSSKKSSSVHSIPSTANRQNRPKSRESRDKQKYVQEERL
UniProt P03454, residues 18-565: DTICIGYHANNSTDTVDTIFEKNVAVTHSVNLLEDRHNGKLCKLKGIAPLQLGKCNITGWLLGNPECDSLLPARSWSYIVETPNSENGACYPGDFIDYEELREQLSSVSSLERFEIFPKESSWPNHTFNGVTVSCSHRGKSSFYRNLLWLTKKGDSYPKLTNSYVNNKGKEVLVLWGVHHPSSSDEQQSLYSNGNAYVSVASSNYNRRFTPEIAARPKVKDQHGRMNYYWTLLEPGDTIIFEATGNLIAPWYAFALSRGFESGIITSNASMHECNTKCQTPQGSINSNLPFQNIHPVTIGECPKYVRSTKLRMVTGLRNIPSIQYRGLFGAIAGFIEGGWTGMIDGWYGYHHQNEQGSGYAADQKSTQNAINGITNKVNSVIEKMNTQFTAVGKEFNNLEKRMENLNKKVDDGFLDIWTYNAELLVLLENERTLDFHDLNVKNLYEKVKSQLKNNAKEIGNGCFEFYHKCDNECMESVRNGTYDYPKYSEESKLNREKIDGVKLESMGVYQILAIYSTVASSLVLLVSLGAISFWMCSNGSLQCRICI

## KCa1.1–Myc (potassium calcium-activated channel subfamily M alpha 1) (from UniProt Q12791 1-1236)
  binding: binds

## HA of H1N1 virus (A/WSN/1933) with a V5 tag (from UniProt P03454)
  binding: binds
